Data as given in PubChem BioAssay AID686938 (Drosophila RNAi Screening Center, 2013).

Aim: 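Looking for CRAC channel components and the factors controlling them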 (primary screen)
System: Drosophila S2R+ cells
Knock-down reagent: long dsRNA against Drosophila genes, about 0.25 µg dsRNA per well, roughly 10,000 cells
Time to read-out: 5 days of knock-down before the calcium assay
Challenge: thapsigargin (SERCA pump blocker) to empty calcium stores; entry signal taken 4 min after adding it
Measured: 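Per-well fluo-4 fluorescence in two replicates, unnormalised, measured in resting cells and 4 min after store depletion by the SERCA blocker thapsigargin; ratio of the two present in few wells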
Scale: calcium entry signal: higher = stronger calcium signal after store depletion; resting calcium signal: higher = higher resting calcium signal
Rule for the call: 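Called when the plate z-score of the entry-to-rest ratio, mean of duplicates, falls below −3; wells with low overall dye signal (Fmax z below −2) or more than five off-targets excluded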
Meaning of the calls: active = strongly reduced calcium entry; inactive = no strong reduction
In all, the deposit lists about 23,000 reagents; below is a random part of those with a known target gene and a result. In the full data, 75 (0.33%) got an active call. 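Raw plate signals without normalisation; calls rest on plate z-scores that were not deposited; ratio present for only 364 wells.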 Names joined by + are all predicted targets of the reagent. No sequences are given here. The record does not give: the dose of the treatment.

predicted target	dsRNA	calcium entry signal, replicate 1 (fluorescence units)	calcium entry signal, replicate 2 (fluorescence units)	resting calcium signal, replicate 1 (fluorescence units)	resting calcium signal, replicate 2 (fluorescence units)	outcome
Cpn	DRSC16613	3.03e7	4.41e7	1.41e7	1.72e7	inactive
CG15599	DRSC19668	2.71e7	3.21e7	1.47e7	1.55e7	inactive
dmpd	DRSC06092	4.61e7	3.99e7	1.87e7	1.90e7	inactive
aux	DRSC12161	3.49e7	3.98e7	1.57e7	2.91e7	inactive
CG32548	DRSC19627	3.95e7	3.56e7	1.95e7	1.59e7	inactive
CG32548	DRSC19982	5.34e7	4.69e7	2.32e7	2.10e7	inactive
l(2)k10201	DRSC06439	3.65e7	3.96e7	1.75e7	1.71e7	inactive
l(2)k10201	DRSC07640	3.85e7	4.16e7	1.70e7	1.73e7	inactive
koko + Vti1b	DRSC16283	4.87e7	3.98e7	2.22e7	1.75e7	inactive
koko + Vti1b	DRSC16284	5.05e7	3.89e7	6.05e7	1.71e7	inactive
PIG-O	DRSC06123	4.07e7	4.34e7	1.85e7	1.97e7	inactive
CG15406	DRSC00420	3.04e7	2.68e7	1.46e7	1.30e7	inactive
Cals	DRSC17196	3.91e7	4.27e7	1.79e7	1.94e7	inactive
Cals	DRSC21661	3.66e7	4.31e7	2.16e7	1.99e7	inactive
Polr2C	DRSC03415	1.38e7		9.80e6		inactive
Marc	DRSC06614	3.56e7	4.00e7	1.77e7	1.67e7	inactive
CG3517	DRSC15492	4.21e7	4.56e7	5.47e7	2.14e7	inactive
Secp43	DRSC00454	2.83e7	2.53e7	1.41e7	1.17e7	inactive
cni	DRSC03512	5.39e7	3.81e7	2.45e7	1.61e7	inactive
CG9143	DRSC07338	3.26e7	2.57e7	1.63e7	1.44e7	inactive
lmd	DRSC15618	5.68e7	4.08e7	2.54e7	1.84e7	inactive
hkb	DRSC12377	3.44e7	3.29e7	1.72e7	1.70e7	inactive
Naa15-16	DRSC19440	6.06e7	3.52e7	2.83e7	1.75e7	inactive
Naa15-16	DRSC22846	2.90e7	4.27e7	1.47e7	1.89e7	inactive
Fum1	DRSC18344	4.05e7	2.98e7	1.88e7	1.59e7	inactive
Pstk + CG14210 + Tim9b	DRSC19566	2.14e7	2.00e7	1.44e7	1.20e7	inactive
mRpL46	DRSC08391	4.53e7	3.50e7	2.09e7	1.57e7	inactive
MED15	DRSC00267	3.41e7		1.92e7		inactive
CG1896	DRSC15397	2.71e7	3.33e7	1.24e7	1.55e7	inactive
AP-1mu	DRSC14089	3.29e7	4.58e7	1.58e7	2.02e7	inactive
CG18585	DRSC02678	4.73e7		2.66e7		inactive
CG14826	DRSC10197	1.79e7	3.46e7	9.05e6	1.42e7	inactive
Pcf11	DRSC05983	1.31e7	2.85e7	9.98e6	1.67e7	inactive
CG12009	DRSC08217	3.74e7	2.54e7	2.53e7	9.91e6	inactive
CG11125	DRSC06042	3.91e7	4.00e7	1.92e7	1.94e7	inactive
CG32263	DRSC22431	4.42e7	3.64e7	2.19e7	1.56e7	inactive
zyd	DRSC20716	4.68e7	4.39e7	2.31e7	2.05e7	inactive
AcCoAS	DRSC11477	3.60e7	5.31e7	1.95e7	2.93e7	inactive
AcCoAS	DRSC11603	3.94e7	4.68e7	2.04e7	3.38e7	inactive
AcCoAS	DRSC22850	2.24e7	4.19e7	1.20e7	2.04e7	inactive

Entries listed so far whose target name begins with K or k (2):
predicted target	dsRNA	calcium entry signal, replicate 1 (fluorescence units)	calcium entry signal, replicate 2 (fluorescence units)	resting calcium signal, replicate 1 (fluorescence units)	resting calcium signal, replicate 2 (fluorescence units)	outcome
koko + Vti1b	DRSC16283	4.87e7	3.98e7	2.22e7	1.75e7	inactive
koko + Vti1b	DRSC16284	5.05e7	3.89e7	6.05e7	1.71e7	inactive
